{
  "sequences": {"note": "Chains of the proteins cited; added tags and fusions are not shown.", "UniProt P42582": "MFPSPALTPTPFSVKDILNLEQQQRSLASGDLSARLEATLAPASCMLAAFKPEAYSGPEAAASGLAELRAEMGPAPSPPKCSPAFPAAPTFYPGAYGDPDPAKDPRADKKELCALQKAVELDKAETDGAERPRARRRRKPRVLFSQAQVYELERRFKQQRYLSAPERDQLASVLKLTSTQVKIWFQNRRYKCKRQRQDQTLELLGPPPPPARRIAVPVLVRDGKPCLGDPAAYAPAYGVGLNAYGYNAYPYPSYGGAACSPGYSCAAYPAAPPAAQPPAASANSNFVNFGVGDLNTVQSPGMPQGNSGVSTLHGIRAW"},
  "source": "paper PMC3376112",
  "target": "T1, recombinant human O-GlcNAc transferase (OGT-flag) (human) (UniProt O15294)",
  "T1 sequence": "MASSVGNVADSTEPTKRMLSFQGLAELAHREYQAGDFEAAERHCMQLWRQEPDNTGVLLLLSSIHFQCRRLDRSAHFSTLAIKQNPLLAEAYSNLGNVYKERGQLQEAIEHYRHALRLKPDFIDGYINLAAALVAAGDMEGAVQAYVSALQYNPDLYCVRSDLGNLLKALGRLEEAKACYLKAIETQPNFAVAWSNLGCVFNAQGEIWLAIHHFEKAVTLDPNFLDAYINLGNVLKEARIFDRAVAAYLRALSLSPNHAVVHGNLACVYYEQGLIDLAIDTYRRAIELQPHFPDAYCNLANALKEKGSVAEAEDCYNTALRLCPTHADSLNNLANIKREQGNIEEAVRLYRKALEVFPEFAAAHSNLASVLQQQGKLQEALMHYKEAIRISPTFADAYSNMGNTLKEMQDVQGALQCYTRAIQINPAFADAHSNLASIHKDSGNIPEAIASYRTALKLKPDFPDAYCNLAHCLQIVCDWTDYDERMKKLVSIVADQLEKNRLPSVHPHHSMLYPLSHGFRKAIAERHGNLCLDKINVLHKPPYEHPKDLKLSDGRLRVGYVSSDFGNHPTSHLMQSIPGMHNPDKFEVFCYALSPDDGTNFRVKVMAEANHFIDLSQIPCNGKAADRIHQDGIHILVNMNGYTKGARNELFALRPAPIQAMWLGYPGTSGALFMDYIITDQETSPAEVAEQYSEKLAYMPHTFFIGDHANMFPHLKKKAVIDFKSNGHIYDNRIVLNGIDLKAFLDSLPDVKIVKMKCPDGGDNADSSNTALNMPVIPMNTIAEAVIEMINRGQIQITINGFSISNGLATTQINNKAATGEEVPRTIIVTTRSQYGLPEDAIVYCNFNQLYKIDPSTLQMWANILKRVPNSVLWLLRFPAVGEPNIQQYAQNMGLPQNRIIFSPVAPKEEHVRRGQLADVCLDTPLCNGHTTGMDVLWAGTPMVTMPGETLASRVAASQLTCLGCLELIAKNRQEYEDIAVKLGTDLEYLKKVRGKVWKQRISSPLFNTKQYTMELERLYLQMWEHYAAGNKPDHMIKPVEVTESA",
  "assay": "co-IP; lysates of HEK293 cells co-transfected with myc-Nkx2.5 and OGT-flag; immunoprecipitation with anti-Nkx2.5, anti-flag or anti-OGT antibodies at 4°C overnight, protein A/G sepharose beads; immunoblotting for myc, flag and OGT",
  "note": "Results are given in words; binding and its absence hold for the method and conditions named. Binding seen in cells or lysates may run through a third protein. Some binding calls cover weakened binding; strength is not graded here. Sequences can lack the tags named with a protein.",
  "data": [
    {"substance": "recombinant mouse Nkx2.5 (myc-Nkx2.5) (from UniProt P42582 1-318)", "values": [
      {"measurement": "binding", "result": "binds"}
    ]}
  ]
}
